Data taken from EP4621052A1, “IMMUNE CELL TARGETING PROBE, PRE-TARGETING RECOGNITION AND DRUG DELIVERY SYSTEM BASED ON PROBE, AND USE THEREOF” (Guangdong Keyangle Life Technology Co., Ltd., priority 2022, dated 2024).
No constants are given. Whether binding was seen depends on the method and setting. Some entries that bind do so weakly or less than the wild type.

Biological target: T1, Peptide segment KS24 (…)
T1 sequence (peptide): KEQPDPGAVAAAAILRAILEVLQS
Experiment: indirect ELISA, peptide as coating antigen

binding: binds
B1: KA-001 monoclonal antibody (antibody, mouse IgG1, kappa, V domains shown)
VH: DVKIVESGGGLVKLGGSLKLSCAASGFTFSRNYMSWVRQTPEKRLELVAGINNNGGSTYYPDTVKGRFTISRDNAKNTLYLQMSSLRSEDTAIYYCAKRGFITTVGAMDYWGQGISVTVSS
VL: DIQMTQTTFSLSASLGDRVTISCRASQDISNYLNWYQQIPDGTVKLLIYYTSRLHSGVPSRFSGSGSGTDYSLTISNLEQEDIATYFCQQVHTLPYTFGGGTKLEMKR
